T1: Halo-tagged WBSCR22/metastasis-related methyltransferase 1 (Merm1) (human) (UniProt O43709)
T1 sequence: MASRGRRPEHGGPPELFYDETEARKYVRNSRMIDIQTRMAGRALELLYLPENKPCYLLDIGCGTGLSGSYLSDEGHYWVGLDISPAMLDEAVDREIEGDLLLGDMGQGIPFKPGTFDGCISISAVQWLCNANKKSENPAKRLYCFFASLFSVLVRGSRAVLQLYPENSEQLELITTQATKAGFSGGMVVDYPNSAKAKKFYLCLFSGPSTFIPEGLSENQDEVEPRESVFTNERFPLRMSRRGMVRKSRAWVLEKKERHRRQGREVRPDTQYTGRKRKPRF

By UniProt entry, the sequences of proteins in these tests, tags left out.
UniProt Q9Y265: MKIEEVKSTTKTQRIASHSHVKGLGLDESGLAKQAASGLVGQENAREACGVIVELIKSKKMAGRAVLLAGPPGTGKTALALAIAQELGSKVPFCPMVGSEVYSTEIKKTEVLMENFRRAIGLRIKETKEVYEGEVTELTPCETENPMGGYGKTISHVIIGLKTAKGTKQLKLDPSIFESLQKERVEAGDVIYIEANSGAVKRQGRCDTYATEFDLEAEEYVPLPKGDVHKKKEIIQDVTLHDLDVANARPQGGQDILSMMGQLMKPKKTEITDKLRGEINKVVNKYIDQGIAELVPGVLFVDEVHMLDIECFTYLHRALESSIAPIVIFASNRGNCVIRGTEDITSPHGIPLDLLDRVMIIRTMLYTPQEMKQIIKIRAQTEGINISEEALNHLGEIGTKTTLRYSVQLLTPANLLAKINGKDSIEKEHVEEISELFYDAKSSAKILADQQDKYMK

B1: TRMT112 (protein, UniProt Q9UI30 1-125)
chain: MKLLTHNLLSSHVRGVGSRGFPLRLQATEVRICPVEFNPNFVARMIPKVEWSAFLEAADNLRLIQVPKGPVEGYEENEEFLRTMHHLLLEVEVIEGTLQCPESGRMFPISRGIPNMLLSEEETES

Results are given in words; binding and its absence hold for the method and conditions named. Binding seen in cells or lysates may run through a third protein. A yes stands for co-enrichment or nearness to the bait. Other partners may have been found. Tags and fused reporters may be left off the sequences shown.

The target of this test is T1, Halo-tagged WBSCR22/metastasis-related methyltransferase 1 (Merm1) (human). In words: affinity purification with mass spectrometry; Halo-Merm1 expressed in HEK293T; DNase-treated lysate (150 mM NaCl, 0.5% Triton X-100, pH 7.4) bound to Halo-link resin overnight at 4 °C, released with TEV protease, SDS-PAGE, LC-MS/MS; Halo-tag alone as control.
Consider “ubiquitin (human (endogenous in HEK293T))”, for which the binding entry is listed as “binds”. The same measure for RUVBL1 (from UniProt Q9Y265 1-456): “binds”; for B1: “binds”.

The values above are taken from PMC3979408.
